The values below come from doi:10.1101/2024.03.28.586926.

Results are given in words; binding and its absence hold for the method and conditions named. Binding seen in cells or lysates may run through a third protein. For some assays here: Binding calls can cover weak binding; strength is not graded here.

Assay [1] deals with Flag-FBXO2-C (FBXO2 with deletion of the F-box domain) (human). The assay is described as follows: co-IP.
For assay [2], the target named is Flag-FBXO2-N (FBXO2 without the FBA domain) (human). The assay is described as follows: co-IP.

B1: heat shock protein 47 (Hsp47), endogenous (protein, UniProt P50454 19-418)
chain: AEVKKPAAAAAPGTAEKLSPKAATLAERSAGLAFSLYQAMAKDQAVENILVSPVVVASSLGLVSLGGKATTASQAKAVLSAEQLRDEEVHAGLGELLRSLSNSTARNVTWKLGSRLYGPSSVSFADDFVRSSKQHYNCEHSKINFRDKRSALQSINEWAAQTTDGKLPEVTKDVERTDGALLVNAMFFKPHWDEKFHHKMVDNRGFMVTRSYTVGVMMMHRTGLYNYYDDEKEKLQIVEMPLAHKLSSLIILMPHHVEPLERLEKLLTKEQLKIWMGKMQKKAVAISLPKGVVEVTHDLQKHLAGLGLTEAIDKNKADLSRMSGKKDLYLASVFHATAFELDTDGNPFDQDIYGREELRSPKLFYADHPFIFLVRDTQSGSLLFIGRLVRPKGDKMRDEL
Consider B1, for which the figures for the binding result in assay [1] and in assay [2] were “binds” and “no binding”, respectively.
